In PubChem BioAssay AID2685 (National Center for Advancing Translational Sciences (NCATS), 2010):
This is one part of the list. Shown are side measurements of this screen, not its main read-out; they come without a call. Compounds called inactive in the main read-out are mostly missing here. The note in brackets gives the kind of curve behind each potency; many fits are weak.

Experiment: qHTS Assay for Lipid Storage Modulators in Drosophila S3 Cells;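 on cell number change: cells counted by Cell Tracker Red CMTPX staining in the red channel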
Conditions: BODIPY lipid droplet fluorescence, 18-24 h; for cell number change: measured here: cell count max response, cells fed with added oleic acid
Outline: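 Drosophila S3 cells loaded with oleic acid (400 uM, as added) and compounds at several concentrations; lipid droplets imaged by 488-nm laser-scanning cytometry, 500–530 nm intensity and object ratio to cell channel. Percent activity normalized to 20 uM Triacsin C.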

[1] = measured here: cell number channel AC50, cells fed with added oleic acid
[2] = measured here: lipid fluorescence (Fed channel) AC50, cells fed with added oleic acid

| Structure (SMILES) | cell number change [%] | AC50 [1] | AC50 [2] |
| --- | --- | --- | --- |
| Cn1cc(C(CO)Cc2ccccc2)c2ccccc21 (centres undefined) | -24.1 | 0.00461 µM [falling, full curve, poor fit] | 23.1 µM [rising, single point] |
| Cc1nc(N2CCN(c3ccccc3)CC2)nc2c1C(=O)CC(C)C2 (centres undefined) | 8.06 |  | 0.206 µM [rising, full curve, poor fit] |
| O=C1CSc2ccc(S(=O)(=O)NCc3ccc(F)cc3)cc2N1 |  |  | 6.51 µM [rising, single point] |
| CC(=O)c1cccc(NC(=O)c2cc(-c3ccco3)nc3ccccc23)c1 | 11.1 |  |  |
| O=C(CSc1nc2nn(-c3ccccc3)c(=O)c-2c2n1CCCCC2)Nc1ccccc1[N+](=O)[O-] |  |  | 0.103 µM [falling, full curve, poor fit] |
| Cc1ccsc1C(=O)NCCc1ccc(S(N)(=O)=O)cc1 | 13.5 |  |  |
| Cc1ccc(C(=O)Nc2ccc(S(=O)(=O)N3CCc4ccccc43)cc2)o1 | -11.8 |  | 29.1 µM [rising, partial curve, poor fit] |
| Cc1ccc(/C=N/NC(=O)c2ccc(N(C)S(=O)(=O)c3ccccc3)cc2)cc1 | 10 |  | 6.51 µM [falling, partial curve, poor fit] |
| COc1ccc(OC)c(S(=O)(=O)N(C)CC(=O)O)c1 | 7.83 |  | 3.26 µM [rising, single point] |
| O=C(Cn1cnc2c(oc3nc4c(cc32)CCCC4)c1=O)Nc1ccccc1 |  |  | 16.4 µM [rising, single point] |
| O=C(N/N=C/c1ccc(-c2cccc([N+](=O)[O-])c2)o1)[C@H]1C[C@@H]1c1ccccc1 | 19.9 |  | 5.17 µM [rising, single point] |
| O=S(=O)(NCCCN1CCOCC1)c1ccc(Cl)s1 | -5.68 |  | 0.082 µM [falling, full curve, poor fit] |
| COC(=O)Cn1c2ccc(F)cc2c2nc(C)sc21 | 3.13 | 0.13 µM [falling, full curve, poor fit] | 0.092 µM [falling, full curve, poor fit] |
| Cc1cc(-c2ccc(C)c(S(=O)(=O)N3CC(=O)Nc4ccccc43)c2)on1 |  |  | 1.46 µM [falling, full curve] |
| CCOc1cccc(CN2CCN(CCCc3ccccc3)C(CCO)C2)c1O (centres undefined) | -14.2 |  | 5.8 µM [falling, full curve] |
| CCOc1ccc(NC(=S)NNc2ccnc3cc(Cl)ccc23)cc1 | 90.1 | 4.11 µM [rising, full curve, poor fit] | 29.1 µM [rising, partial curve, poor fit] |

Sorted by formula weight (low to high): 3 of the compounds above

| Structure (SMILES) | cell number change [%] | AC50 [1] | AC50 [2] |
| --- | --- | --- | --- |
| O=S(=O)(NCCCN1CCOCC1)c1ccc(Cl)s1 | -5.68 |  | 0.082 µM [falling, full curve, poor fit] |
| O=C1CSc2ccc(S(=O)(=O)NCc3ccc(F)cc3)cc2N1 |  |  | 6.51 µM [rising, single point] |
| O=C(N/N=C/c1ccc(-c2cccc([N+](=O)[O-])c2)o1)[C@H]1C[C@@H]1c1ccccc1 | 19.9 |  | 5.17 µM [rising, single point] |
